This is an account of results in publication PMC7519157.

Chains of the proteins cited; added tags and fusions are not shown.
UniProt O88522: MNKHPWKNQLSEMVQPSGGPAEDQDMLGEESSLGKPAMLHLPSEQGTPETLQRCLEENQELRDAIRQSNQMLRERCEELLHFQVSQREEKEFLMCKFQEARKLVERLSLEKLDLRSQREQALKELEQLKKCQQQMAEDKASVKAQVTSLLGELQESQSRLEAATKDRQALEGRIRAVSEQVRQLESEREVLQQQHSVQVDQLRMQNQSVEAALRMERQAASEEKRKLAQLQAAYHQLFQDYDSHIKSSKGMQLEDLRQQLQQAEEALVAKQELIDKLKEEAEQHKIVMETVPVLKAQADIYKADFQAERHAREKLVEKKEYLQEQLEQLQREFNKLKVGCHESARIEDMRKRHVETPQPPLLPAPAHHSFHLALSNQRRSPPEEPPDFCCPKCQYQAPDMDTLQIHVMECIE

These are yes or no findings as the source states them, for the method shown. Binding seen in cells or lysates may run through a third protein. Some binding calls cover weakened binding; strength is not graded here. For part of these data: Tags and fused reporters may be left off the sequences shown.

The target in assay [1] is IKKγ (mouse (endogenous in BMDMs)) (UniProt O88522). Kind of assay: co-IP; wild-type or PTPN14-deficient BMDMs, with or without Socs7 siRNA, stimulated with 1 μg/mL LPS and 5 mM D-GalN for 24 h; lysates with antibodies and Protein A/G beads overnight at 4 °C.
For assay [2], the target named is T1, HA-labeled PTPN14 (protein tyrosine phosphatase non-receptor type 14) (mouse) (UniProt Q62130).
T1 sequence: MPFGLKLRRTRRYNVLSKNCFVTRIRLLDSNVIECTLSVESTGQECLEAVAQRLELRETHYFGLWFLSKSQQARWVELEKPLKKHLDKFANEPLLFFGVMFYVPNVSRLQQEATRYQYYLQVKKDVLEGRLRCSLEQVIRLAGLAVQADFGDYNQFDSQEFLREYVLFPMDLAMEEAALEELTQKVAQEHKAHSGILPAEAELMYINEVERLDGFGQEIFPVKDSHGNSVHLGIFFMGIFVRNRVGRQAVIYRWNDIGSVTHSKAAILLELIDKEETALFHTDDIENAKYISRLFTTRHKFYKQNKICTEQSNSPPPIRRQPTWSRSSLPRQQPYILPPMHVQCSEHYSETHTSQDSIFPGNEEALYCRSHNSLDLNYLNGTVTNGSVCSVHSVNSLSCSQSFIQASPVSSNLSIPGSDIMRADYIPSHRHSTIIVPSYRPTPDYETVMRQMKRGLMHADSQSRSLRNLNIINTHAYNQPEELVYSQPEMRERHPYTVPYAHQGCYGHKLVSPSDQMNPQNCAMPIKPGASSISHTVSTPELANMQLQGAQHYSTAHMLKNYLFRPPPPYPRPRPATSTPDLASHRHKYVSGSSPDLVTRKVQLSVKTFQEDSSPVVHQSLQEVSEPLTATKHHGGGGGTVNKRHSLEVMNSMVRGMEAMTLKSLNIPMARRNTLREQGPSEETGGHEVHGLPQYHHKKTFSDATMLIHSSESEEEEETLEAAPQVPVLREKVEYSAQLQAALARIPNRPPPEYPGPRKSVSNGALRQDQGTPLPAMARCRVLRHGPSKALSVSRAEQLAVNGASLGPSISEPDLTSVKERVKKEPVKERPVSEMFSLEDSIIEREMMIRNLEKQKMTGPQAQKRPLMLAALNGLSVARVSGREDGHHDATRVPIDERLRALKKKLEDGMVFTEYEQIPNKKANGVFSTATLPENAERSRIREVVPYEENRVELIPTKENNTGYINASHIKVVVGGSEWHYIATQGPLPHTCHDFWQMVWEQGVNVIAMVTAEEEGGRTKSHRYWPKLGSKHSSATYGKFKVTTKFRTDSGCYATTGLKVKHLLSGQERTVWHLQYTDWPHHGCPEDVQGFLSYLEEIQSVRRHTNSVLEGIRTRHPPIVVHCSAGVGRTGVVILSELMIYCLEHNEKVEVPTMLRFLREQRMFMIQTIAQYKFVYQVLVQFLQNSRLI
Put plainly: co-IP; HA-labeled PTPN14 and Myc-labeled SOCS7 transfected into HEK293T cells; RIPA lysates incubated with antibodies and Protein A/G beads overnight at 4 °C, immunoblot. A general note: In western blotting, separated proteins are transferred to a membrane and probed.

In assay [3] the target is T2, GST-PTPN14 (mouse) (UniProt Q62130).
T2 sequence: T1 sequence
Kind of assay: pull-down; GST pulldown assay in vitro.

The target of assay [4] is T3, PTPN14 in Hep G2 cells (human (endogenous in Hep G2)) (UniProt Q15678).
T3 sequence: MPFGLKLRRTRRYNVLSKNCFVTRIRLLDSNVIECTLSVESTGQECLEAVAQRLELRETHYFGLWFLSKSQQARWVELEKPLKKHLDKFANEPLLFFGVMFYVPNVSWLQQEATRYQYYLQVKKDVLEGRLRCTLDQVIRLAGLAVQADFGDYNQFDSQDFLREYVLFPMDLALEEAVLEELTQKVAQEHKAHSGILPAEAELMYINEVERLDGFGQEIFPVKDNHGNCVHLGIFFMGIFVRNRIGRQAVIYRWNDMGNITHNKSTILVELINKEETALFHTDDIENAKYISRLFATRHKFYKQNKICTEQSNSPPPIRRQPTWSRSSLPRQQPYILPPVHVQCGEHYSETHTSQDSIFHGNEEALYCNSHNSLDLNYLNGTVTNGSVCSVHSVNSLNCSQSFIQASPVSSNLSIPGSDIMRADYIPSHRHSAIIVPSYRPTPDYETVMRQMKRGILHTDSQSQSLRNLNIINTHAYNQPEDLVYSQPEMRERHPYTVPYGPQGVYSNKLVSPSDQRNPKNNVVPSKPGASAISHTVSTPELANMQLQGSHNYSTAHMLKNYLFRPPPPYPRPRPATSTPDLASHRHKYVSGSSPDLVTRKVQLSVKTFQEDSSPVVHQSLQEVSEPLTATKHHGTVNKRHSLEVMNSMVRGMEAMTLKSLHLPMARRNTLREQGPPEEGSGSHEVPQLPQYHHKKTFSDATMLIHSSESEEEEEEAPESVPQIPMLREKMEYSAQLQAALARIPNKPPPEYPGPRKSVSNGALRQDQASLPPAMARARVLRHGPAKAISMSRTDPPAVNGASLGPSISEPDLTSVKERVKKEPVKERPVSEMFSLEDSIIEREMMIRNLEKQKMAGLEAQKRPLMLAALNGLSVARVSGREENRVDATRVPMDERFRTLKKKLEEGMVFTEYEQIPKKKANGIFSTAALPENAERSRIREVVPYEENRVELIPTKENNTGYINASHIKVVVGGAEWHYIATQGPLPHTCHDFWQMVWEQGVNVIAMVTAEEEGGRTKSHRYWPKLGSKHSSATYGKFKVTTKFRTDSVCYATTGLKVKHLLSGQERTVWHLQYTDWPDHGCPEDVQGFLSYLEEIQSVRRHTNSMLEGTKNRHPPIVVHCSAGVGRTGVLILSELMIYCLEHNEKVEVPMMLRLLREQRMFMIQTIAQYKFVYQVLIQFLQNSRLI
Put plainly: co-IP; Hep G2 cells treated with E64d+PepA or MG132, stimulated with 1 μg/mL LPS and 5 mM D-GalN for 24 h; lysates with antibodies and Protein A/G beads overnight at 4 °C.

B1: IKKα (protein, UniProt Q60680 1-745)
chain: MERPPGLRPGAGGPWEMRERLGTGGFGNVSLYQHRELDLKIAIKSCRLELSSKNRERWCHEIQIMKKLDHANVVKACDVPEELNFLINDVPLLAMEYCSGGDLRKLLNKPENCCGLKESQILSLLSDIGSGIRYLHENKIIHRDLKPENIVLQDVGGKTIHKIIDLGYAKDVDQGSLCTSFVGTLQYLAPELFENKPYTATVDYWSFGTMVFECIAGYRPFLHHLQPFTWHEKIKKKDPKCIFACEEMTGEVRFSSHLPQPNSLCSLIVEPMESWLQLMLNWDPQQRGGPIDLTLKQPRCFALMDHILNLKIVHILNMTSAKIISFLLPCDESLHSLQSRIERETGINTGSQELLSETGISLDPRKPASQCVLDGVRGCDSYMVYLFDKSKTVYEGPFASRSLSDCVNYIVQDSKIQLPIIQLRKVWAEAVHYVSGLKEDYSRLFQGQRAAMLSLLRYNANLTKMKNTLISASQQLKAKLEFFRKSIQLDLERYSEQMTYGISSEKMLKAWKEMEEKAIHYSEVGVIGYLEDQIMSLHTEIMELQKSPYGRRQGDLMESLEQRAIDLYKQLKHRPPDHLYSDSTEMVKIIVHTVQSQDRVLKELFGHLSKLLGCKQKIIDLLPKVEVALSNIKEADNTVMFMQGKRQKEIWHLLKIACTQSSARSLVGSSLEGTVTPPVSAWLPPTLADREHPLTCVVTPQDGETLAQMIEENLNCLGHLSTIIREANEDQSSSLMSLDWSWLAE
As for B1, the binding entry in assay [1] is “binds”.

B2: Myc-labeled SOCS7 (suppressor of cytokine signaling 7) (protein, UniProt Q8VHQ2 1-579)
chain: MVFRNVGRPPEEEDAEAAREPGPSELLCPRHRCALDPKALPPGLALERTWGPVAGLEAQLAALGLGQPAGPGIKTAGGGCCPCPCPPQPPPPQPPPPAAAPQAGEDPTETSDALLVLEGLESEAESLETNSCSEEELSSPGRGGGGVGGRLLLQPPGPELPPVPFPLQDLVPPGRLSRGEQQQQQPPPPPPPPGPLRPLAGPSRKGSFKIRLSRLFRTKSCNGGSGGGDGTGKRPSGDLAASAASLTDMGGSAVRELDTGRKPRLTRTQSAFSPVSFSPLFTGETVSLVDVDISQRGLTSPHPPTPPPPPRRSLSLLDDISGTLPTSVLVAPMGSSLQSFPLPPPPPPHAPDAFPRIAPIRASESLHSQPPQHLQCPLYRPDSSSFAASLRELEKCGWYWGPMNWEDAEMKLKGKPDGSFLVRDSSDPRYILSLSFRSQGITHHTRMEHYRGTFSLWCHPKFEDRCQSVVEFIKRAIMHSKNGKFLYFLRSRVPGLPPTPVQLLYPVSRFSNVKSLQHLCRFRIRQLVRIDHIPDLPLPKPLISYIRKFYYYDPQEEVYLSLKEAQLISKQKQEVEPST
On to B2, for which the binding result in assay [2] was “binds”.

B3: SOCS7 in bone marrow-derived macrophages (protein, UniProt Q8VHQ2 1-579)
chain: B2 chain
On to B3, for which the binding entry in assay [1] is on record as “binds”.

B4: SOCS7 of the GST pulldown assay (protein, UniProt Q8VHQ2 1-579)
chain: B2 chain
In the case of B4, in assay [3], the binding result is recorded as “binds”.

B5: IKKβ (protein, UniProt O88351 1-757)
chain: MSWSPSLPTQTCGAWEMKERLGTGGFGNVIRWHNQATGEQIAIKQCRQELSPKNRNRWCLEIQIMRRLNHPNVVAARDVPEGMQNLAPNDLPLLAMEYCQGGDLRRYLNQFENCCGLREGAVLTLLSDIASALRYLHENRIIHRDLKPENIVLQQGEKRLIHKIIDLGYAKELDQGSLCTSFVGTLQYLAPELLEQQKYTVTVDYWSFGTLAFECITGFRPFLPNWQPVQWHSKVRQKSEVDIVVSEDLNGAVKFSSSLPFPNNLNSVLAERLEKWLQLMLMWHPRQRGTDPQYGPNGCFRALDDILNLKLVHVLNMVTGTVHTYPVTEDESLQSLKTRIQENTGILETDQELLQKAGLVLLPDKPATQCISDSKTNEGLTLDMDLVFLLDNSKINYETQITPRPPPESVSCILQEPKRNLSFFQLRKVWGQVWHSIQTLKEDCNRLQQGQRAAMMSLLRNNSCLSKMKNAMASTAQQLKAKLDFFKTSIQIDLEKYKEQTEFGITSDKLLLAWREMEQAVEQCGRENDVKHLVERMMALQTDIVDLQRSPMGRKQGGTLDDLEEQARELYRKLREKPRDQRTEGDSQEMVRLLLQAIQSFEKKVRVIYTQLSKTVVCKQKALELLPKVEEVVSLMNEDERTVVRLQEKRQKELWNLLKIACSKVRGPVSGSPDSMNVSRLSHPGQLMSQPSSACDSLPESDKKSEELVAEAHALCSRLESALQDTVKEQDRSFTTLDWSWLQMEDEERCSLEQACD
Turning to B5, in assay [1], the binding result is recorded as “binds”.

B6: SOCS7 in Hep G2 cells (protein, UniProt O14512 1-581)
chain: MVFRNVGRPPEEEDVEAAPEPGPSELLCPRHRCALDPKALPPGLALERTWGPAAGLEAQLAALGLGQPAGPGVKTVGGGCCPCPCPPQPPPPQPQPPAAAPQAGEDPTETSDALLVLEGLESEAESLETNSCSEEELSSPGRGGGGGGRLLLQPPGPELPPVPFPLQDLVPLGRLSRGEQQQQQQQQPPPPPPPPGPLRPLAGPSRKGSFKIRLSRLFRTKSCNGGSGGGDGTGKRPSGELAASAASLTDMGGSAGRELDAGRKPKLTRTQSAFSPVSFSPLFTGETVSLVDVDISQRGLTSPHPPTPPPPPRRSLSLLDDISGTLPTSVLVAPMGSSLQSFPLPPPPPPHAPDAFPRIAPIRAAESLHSQPPQHLQCPLYRPDSSSFAASLRELEKCGWYWGPMNWEDAEMKLKGKPDGSFLVRDSSDPRYILSLSFRSQGITHHTRMEHYRGTFSLWCHPKFEDRCQSVVEFIKRAIMHSKNGKFLYFLRSRVPGLPPTPVQLLYPVSRFSNVKSLQHLCRFRIRQLVRIDHIPDLPLPKPLISYIRKFYYYDPQEEVYLSLKEAQLISKQKQEVEPST
B6: the binding entry in assay [4] is “binds”.
